Results published in US20190201449.
Where cells or extracts were used, other partners may take part. For part of these data: Construct, isoform or probe ends are uncertain for at least one entry.

Key:
PU.1 (SPI1) [1] = target: PU.1 (SPI1) (UniProt P17947); experiment: EMSA
PU.1 (SPI1) [2] = target: PU.1 (SPI1) (UniProt P17947); experiment: binding assay
Sp1/Sp3 = experiment: binding assay; conditions: bound in vitro and in vivo; site mutation lowers promoter activity 35-50%; protein in an extract
PU.1/HAF1 = experiment: binding assay; conditions: bound in vitro and in vivo; site mutation lowers promoter activity 35-50%; protein in an extract
PU.1 (SPI1) [3] = target: PU.1 (SPI1) (UniProt P17947); experiment: footprint; conditions: HL-60 nuclear extract 5-40 ug; protected -37 to -53; protein in an extract; protein details: endogenous PU.1 in THP-1 or HL-60 nuclear extract
[4] = system: AP-1 (Jun and Fos family proteins); experiment: binding assay; conditions: HL-60 nuclear extract, in vitro binding; protein in an extract; protein details: HL-60 nuclear extract
AP-1 (c-Fos, c-Jun) = experiment: binding assay; conditions: ChIP, HL-60 cells; p40-PU.1 region as control; protein in cells; protein details: endogenous in HL-60 cells

Does “GGGCTCGAGGACTTCCTCTTTCCAGTGCATTTAA (double strand) [p47-PU.1-48 (46G wild type)]” bind (PU.1 (SPI1) [1]; THP-1 nuclear extract, probe is an underlined part of the listed construct sequence, protein in an extract, protein details: endogenous PU.1 in THP-1 or HL-60 nuclear extract)?
Result: binds

Does “GAGGGTCCACTTCCTCAATTTCTGTG (double strand) [p40phox PU.1a]” bind (PU.1 (SPI1) [2]; ChIP, HL-60 cells, PU.1 sites occupied in vivo, not resolved individually, protein in cells, protein details: endogenous in HL-60 cells)?
Result: binds

Does “GCTGATGTACTTCCTCTCTCCTCCAC (double strand) [p67phox PU.1 site (-289)]” bind (PU.1 (SPI1) [2]; bound in vitro and in vivo, site mutation lowers promoter activity 35-50%, protein in an extract, protein details: endogenous PU.1 in THP-1 or HL-60 nuclear extract)?
Result: binds

Does “CTCAGAATAGGGGAGGGGCAGGACA (double strand) [p67phox Sp1/Sp3 site (-694)]” bind (Sp1/Sp3)?
Result: binds

Does “GTGGGGACATTTCCTGATGCATTTTGC (double strand) [p67phox PU.1/HAF1 site (-182)]” bind (PU.1/HAF1)?
Result: binds

Does “AAAGAGGAAGTCGCTT (double strand) [p47phox promoter footprint region (lower strand)]” bind (PU.1 (SPI1) [1]; in vitro synthesized PU.1 binds element specifically, mutation of site abolished binding, method not given, synthetic protein, protein details: in vitro synthesized)?
Result: binds

Does “AAAGAGGAAGTCGCTT (double strand) [p47phox promoter footprint region (lower strand)]” bind (PU.1 (SPI1) [3])?
Result: binds

Does “GGTAGGGTTATGAGTCAGTTGCCAAA (double strand) [p67phox AP-1 site (-210, intron 1)]” bind [4]?
Result: binds

Does “GGTAGGGTTATGAGTCAGTTGCCAAA (double strand) [p67phox AP-1 site (-210, intron 1)]” bind (AP-1 (c-Fos, c-Jun))?
Result: binds
